The supplement of paper PMC12819154, “High-throughput peptide-centric local stability assay extends protein–ligand identification to membrane proteins, tissues and bacteria” (Nature Structural & Molecular Biology, 2025)
This is one part of the list. Most entries show no effect beyond the scatter of the controls.

Sequences of proteins named here, by UniProt entry; tags and fusion partners are left off. A change or cut given only in a name is not applied to a line headed by its entry.
UniProt Q6PFY1: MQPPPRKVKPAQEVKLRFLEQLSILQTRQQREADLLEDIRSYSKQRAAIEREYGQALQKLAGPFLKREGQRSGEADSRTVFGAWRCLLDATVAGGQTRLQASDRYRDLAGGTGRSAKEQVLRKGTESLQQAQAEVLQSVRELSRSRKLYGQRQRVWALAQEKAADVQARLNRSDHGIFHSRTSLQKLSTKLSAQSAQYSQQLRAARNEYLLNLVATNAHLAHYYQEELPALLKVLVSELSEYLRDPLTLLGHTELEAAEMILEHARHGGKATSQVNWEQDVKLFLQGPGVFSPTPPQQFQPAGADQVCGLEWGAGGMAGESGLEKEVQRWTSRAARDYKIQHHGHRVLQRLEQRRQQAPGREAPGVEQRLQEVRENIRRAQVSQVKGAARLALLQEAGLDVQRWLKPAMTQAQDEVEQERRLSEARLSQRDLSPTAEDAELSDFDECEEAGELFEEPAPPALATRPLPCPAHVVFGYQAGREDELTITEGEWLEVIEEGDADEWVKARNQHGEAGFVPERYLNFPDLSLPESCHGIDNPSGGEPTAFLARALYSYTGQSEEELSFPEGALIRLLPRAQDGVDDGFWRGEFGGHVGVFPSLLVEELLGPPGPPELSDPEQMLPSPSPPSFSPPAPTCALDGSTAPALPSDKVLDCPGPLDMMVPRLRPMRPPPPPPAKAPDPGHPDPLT
UniProt Q6PD03: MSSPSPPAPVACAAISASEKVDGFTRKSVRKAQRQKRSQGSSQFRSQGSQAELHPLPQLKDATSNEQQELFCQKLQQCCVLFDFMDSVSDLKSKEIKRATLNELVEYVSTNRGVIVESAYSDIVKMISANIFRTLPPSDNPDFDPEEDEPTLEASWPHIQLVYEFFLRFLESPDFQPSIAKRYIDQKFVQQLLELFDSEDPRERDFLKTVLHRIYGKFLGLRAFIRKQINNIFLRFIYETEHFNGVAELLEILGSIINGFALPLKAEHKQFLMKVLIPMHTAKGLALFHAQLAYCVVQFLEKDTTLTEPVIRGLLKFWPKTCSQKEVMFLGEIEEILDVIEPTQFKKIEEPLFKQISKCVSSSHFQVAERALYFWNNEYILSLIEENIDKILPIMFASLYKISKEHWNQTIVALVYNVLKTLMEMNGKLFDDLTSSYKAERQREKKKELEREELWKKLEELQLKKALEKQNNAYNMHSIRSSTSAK
UniProt Q6KAU8: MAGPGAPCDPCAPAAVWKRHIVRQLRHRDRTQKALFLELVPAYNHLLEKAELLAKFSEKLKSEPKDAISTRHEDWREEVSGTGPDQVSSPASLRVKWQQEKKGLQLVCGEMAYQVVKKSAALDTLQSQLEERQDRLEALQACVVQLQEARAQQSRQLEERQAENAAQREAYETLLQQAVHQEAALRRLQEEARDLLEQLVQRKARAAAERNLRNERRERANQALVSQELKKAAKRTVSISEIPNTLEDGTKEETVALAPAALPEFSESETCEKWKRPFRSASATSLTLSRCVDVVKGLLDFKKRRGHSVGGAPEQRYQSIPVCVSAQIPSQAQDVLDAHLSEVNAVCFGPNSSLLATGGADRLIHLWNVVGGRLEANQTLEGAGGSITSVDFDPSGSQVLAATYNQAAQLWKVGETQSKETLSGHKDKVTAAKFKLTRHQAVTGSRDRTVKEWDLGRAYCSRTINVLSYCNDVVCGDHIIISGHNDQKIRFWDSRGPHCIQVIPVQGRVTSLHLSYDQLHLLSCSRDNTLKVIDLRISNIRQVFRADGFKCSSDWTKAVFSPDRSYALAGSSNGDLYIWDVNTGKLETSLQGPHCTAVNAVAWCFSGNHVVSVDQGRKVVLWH
UniProt Q6DIC0, whole entry: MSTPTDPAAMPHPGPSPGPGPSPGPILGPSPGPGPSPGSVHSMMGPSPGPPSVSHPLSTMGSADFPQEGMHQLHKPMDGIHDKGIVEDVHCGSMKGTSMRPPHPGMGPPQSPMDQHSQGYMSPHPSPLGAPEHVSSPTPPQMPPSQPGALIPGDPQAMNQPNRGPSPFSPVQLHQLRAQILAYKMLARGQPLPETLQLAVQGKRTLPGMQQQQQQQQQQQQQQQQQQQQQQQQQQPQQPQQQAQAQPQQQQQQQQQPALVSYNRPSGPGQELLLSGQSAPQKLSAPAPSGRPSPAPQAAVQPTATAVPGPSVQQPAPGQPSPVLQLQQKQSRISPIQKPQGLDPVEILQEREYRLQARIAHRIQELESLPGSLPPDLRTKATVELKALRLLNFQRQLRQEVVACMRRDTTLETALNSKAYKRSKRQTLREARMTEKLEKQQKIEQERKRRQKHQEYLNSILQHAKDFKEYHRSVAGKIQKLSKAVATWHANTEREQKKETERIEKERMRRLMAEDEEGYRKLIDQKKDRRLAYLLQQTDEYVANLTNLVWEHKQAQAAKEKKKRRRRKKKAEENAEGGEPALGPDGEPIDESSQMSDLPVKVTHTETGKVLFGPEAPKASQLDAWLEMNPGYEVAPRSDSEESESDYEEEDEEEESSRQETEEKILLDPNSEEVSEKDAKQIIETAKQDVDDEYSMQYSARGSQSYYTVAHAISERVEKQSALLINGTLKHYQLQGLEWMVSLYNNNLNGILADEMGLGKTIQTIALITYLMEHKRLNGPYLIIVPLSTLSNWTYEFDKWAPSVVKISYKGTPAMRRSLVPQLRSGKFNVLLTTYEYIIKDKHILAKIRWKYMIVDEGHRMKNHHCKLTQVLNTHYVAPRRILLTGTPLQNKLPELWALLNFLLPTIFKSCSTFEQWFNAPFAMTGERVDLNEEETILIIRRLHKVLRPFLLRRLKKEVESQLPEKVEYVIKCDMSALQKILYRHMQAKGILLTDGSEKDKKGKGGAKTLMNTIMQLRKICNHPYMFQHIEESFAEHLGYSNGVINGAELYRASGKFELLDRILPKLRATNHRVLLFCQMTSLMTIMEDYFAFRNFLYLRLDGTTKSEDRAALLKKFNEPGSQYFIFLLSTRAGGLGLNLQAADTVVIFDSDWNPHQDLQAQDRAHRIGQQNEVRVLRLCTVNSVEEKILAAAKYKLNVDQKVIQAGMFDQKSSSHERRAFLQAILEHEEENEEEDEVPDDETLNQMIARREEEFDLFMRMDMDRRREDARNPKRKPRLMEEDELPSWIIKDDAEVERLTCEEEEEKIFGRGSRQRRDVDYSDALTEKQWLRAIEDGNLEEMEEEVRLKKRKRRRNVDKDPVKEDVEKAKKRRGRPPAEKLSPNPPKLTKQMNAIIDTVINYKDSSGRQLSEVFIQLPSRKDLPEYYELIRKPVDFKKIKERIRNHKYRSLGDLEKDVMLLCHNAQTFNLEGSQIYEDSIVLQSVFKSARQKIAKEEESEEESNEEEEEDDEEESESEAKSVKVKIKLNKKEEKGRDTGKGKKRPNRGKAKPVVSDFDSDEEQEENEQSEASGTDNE
UniProt Q6P6M5: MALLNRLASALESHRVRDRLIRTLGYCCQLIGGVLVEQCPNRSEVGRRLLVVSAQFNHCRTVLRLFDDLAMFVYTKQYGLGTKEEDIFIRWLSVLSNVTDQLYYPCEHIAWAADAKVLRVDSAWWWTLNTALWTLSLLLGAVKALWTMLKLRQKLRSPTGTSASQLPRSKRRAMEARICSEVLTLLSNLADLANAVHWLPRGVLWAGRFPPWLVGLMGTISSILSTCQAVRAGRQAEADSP
UniProt Q6IQX8: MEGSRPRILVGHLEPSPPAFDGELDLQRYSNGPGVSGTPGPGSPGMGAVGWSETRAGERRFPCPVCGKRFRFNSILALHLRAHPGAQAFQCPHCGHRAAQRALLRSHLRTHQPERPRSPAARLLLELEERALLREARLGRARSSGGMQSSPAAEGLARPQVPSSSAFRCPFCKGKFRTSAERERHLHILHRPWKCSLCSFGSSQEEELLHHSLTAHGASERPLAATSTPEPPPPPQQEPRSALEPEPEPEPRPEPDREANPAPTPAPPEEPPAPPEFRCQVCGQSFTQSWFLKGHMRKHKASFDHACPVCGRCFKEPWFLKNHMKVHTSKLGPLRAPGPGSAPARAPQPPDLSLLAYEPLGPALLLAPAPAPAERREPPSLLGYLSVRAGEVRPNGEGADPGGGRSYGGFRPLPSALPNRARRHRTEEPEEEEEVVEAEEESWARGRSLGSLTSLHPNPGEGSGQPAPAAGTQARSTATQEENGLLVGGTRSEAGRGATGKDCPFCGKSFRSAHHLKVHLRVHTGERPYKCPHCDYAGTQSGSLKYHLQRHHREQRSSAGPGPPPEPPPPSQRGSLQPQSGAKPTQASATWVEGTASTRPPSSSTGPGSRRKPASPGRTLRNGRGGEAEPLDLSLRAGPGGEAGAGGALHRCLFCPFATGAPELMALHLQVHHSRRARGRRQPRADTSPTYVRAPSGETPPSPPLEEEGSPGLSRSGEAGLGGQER
UniProt Q6P9S0: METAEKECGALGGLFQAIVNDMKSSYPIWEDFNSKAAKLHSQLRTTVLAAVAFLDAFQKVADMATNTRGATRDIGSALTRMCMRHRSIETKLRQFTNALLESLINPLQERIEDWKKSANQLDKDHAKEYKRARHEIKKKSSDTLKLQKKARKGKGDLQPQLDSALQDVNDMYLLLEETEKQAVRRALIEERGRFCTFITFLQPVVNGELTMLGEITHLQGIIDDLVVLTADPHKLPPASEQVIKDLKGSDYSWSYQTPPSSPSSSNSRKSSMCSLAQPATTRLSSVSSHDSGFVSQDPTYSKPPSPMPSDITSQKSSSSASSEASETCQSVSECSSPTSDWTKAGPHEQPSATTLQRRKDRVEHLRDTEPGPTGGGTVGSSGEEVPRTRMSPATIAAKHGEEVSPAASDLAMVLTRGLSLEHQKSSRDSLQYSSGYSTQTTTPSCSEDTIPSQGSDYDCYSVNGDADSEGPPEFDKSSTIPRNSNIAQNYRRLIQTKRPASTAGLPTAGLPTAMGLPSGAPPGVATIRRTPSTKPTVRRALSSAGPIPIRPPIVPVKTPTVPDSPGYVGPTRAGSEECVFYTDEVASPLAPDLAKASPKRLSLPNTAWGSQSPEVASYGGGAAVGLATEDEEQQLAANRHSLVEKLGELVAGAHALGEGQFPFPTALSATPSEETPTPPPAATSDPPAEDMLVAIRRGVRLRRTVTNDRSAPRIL
UniProt Q6NXH3: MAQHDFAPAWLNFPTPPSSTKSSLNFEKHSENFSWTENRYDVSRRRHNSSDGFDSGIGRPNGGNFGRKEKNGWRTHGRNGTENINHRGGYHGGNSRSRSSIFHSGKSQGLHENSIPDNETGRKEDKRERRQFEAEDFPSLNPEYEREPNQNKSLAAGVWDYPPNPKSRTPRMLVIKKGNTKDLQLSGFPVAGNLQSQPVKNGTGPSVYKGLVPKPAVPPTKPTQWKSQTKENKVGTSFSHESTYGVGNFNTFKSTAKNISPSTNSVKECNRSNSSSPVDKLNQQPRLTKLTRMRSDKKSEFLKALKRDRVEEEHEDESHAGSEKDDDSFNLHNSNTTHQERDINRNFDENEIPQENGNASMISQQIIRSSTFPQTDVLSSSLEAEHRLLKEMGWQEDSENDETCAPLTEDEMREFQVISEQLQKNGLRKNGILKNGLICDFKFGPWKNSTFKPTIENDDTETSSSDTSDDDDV
UniProt Q6PH08: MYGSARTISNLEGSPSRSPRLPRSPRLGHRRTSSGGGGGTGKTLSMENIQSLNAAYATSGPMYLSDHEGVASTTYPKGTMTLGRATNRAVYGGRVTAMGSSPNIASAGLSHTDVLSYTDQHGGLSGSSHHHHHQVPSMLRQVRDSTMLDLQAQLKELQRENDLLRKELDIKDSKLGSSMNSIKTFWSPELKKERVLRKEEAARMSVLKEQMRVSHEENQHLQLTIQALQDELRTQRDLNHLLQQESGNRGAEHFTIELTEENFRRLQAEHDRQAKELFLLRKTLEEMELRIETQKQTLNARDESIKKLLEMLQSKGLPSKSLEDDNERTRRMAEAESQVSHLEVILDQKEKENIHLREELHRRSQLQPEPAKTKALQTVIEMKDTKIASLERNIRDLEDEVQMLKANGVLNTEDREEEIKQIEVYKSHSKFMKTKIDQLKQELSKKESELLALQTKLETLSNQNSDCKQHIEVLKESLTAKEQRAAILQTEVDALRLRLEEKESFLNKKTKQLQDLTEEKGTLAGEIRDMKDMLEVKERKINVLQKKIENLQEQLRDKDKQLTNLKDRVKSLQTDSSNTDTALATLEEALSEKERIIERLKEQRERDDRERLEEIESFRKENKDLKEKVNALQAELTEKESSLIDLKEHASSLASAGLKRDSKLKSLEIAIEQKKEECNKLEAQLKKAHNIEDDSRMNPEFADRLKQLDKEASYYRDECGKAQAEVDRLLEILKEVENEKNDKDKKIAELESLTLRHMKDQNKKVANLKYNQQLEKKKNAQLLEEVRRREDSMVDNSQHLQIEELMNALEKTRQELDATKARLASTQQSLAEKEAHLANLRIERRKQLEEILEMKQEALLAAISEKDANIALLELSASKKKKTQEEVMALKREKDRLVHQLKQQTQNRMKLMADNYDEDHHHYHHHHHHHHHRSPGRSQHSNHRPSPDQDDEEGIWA

What follows are targets tested with CN[C@@H]1C[C@H]2O[C@@](C)([C@@H]1OC)n1c3ccccc3c3c4c(c5c6ccccc6n2c5c31)C(=O)NC4 [staurosporine] (assay: log2 fold change of tryptic peptide abundance, ligand vs vehicle (limited proteolysis) (log2 ratio); higher = more trypsin-susceptible (destabilized)). Settings: ligand concentration: 20 uM; sample: mouse liver crude lysate; replicate design: treated separately.
Target “UniProt Q6PFY1 (peptide sequence: EYGQALQK, peptide start residue: 52)” has a log2 fold change of 0.147.
Target “UniProt Q6PD03 (peptide sequence: KELEREELWK, peptide start residue: 447)” has a log2 fold change of 0.16.
“UniProt Q6KAU8 (peptide sequence: SASATSLTLSR, peptide start residue: 280)” showed a log2 fold change of 0.507.
In the case of “UniProt Q69ZS7 (peptide sequence: SIDKPFR, peptide start residue: 481)”, the log2 fold change is reported as 0.243.
“UniProt Q6DIC0 (peptide sequence: GPSPFSPVQLHQLR, peptide start residue: 164)” was tested, and the log2 fold change was -0.309.
“UniProt Q6P6M5 (peptide sequence: LLVVSAQFNHCR, peptide start residue: 49)” showed a log2 fold change of -0.72.
Target “UniProt Q6IQX8 (peptide sequence: AHPGAQAFQCPHCGHR, peptide start residue: 82)” has a log2 fold change of 0.797.
“UniProt Q6NVF4 (peptide sequence: TSQFIAFR, peptide start residue: 721)” was tested, and the log2 fold change was -0.618.
With “UniProt Q6P3A8 (peptide sequence: DKYGKDR, peptide start residue: 110)” the log2 fold change was -0.149.
Target “UniProt Q6P9S0 (peptide sequence: VADMATNTR, peptide start residue: 61)” has a log2 fold change of 0.184.
In the case of “UniProt Q6NXH3 (peptide sequence: NGTGPSVYK, peptide start residue: 201)”, the log2 fold change is reported as 0.313.
In the case of “UniProt Q6PH08 (peptide sequence: LLEILKEVENEK, peptide start residue: 761)”, the log2 fold change is reported as -0.329.
